Assay results from patent US20230048633A1.
Results are given in words; binding and its absence hold for the method and conditions named. Some entries that bind do so weakly or less than the wild type. Tags and fused reporters may be left off the sequences shown.

Chains of the proteins cited; added tags and fusions are not shown. Residues count along the entry.
UniProt P04202, residues 279-390: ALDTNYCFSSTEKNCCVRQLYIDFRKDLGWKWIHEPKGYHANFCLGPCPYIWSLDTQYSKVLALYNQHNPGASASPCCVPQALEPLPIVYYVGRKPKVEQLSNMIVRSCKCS

Legend:
[1] = biological target: recombinant mouse TGFβ1 protein (mouse) (UniProt P04202); assay: BLI (Octet), mouse TGFβ1 linked to amine-reactive tips, chimeric proteins at 5 µg/ml
[2] = biological target: recombinant mouse TGFβ1 protein (mouse) (UniProt P04202); assay: ELISA, TGFβ1 coated, detection with anti mFc-HRP
[3] = biological target: recombinant mouse TGFβ1 protein (mouse) (UniProt P04202); assay: Octet (TGFb-ARG2): TGFb (Biolegend 763104) coupled to ARG2 tips, 100nM (2.5 ug/ml) TGFb concentration shown; chimeric proteins at 5 ug/ml according to paragraph 289
[4] = biological target: recombinant mouse TGFβ1 protein (mouse) (UniProt P04202); assay: ELISA, recombinant TGFβ1 coated, detection with anti mFc-HRP
[5] = biological target: recombinant mouse TGFβ1 protein (mouse) (UniProt P04202); assay: ELISA: plate coated with mTGFB1 (0.5 ug/ml, R&D 7666-MB), titrated protein captured, detected with α-mFc-HRP (1:10k, Jax 115-036-003)
[6] = biological target: TGFβ1 secreted by the tumor cell line EO771 (mouse) (UniProt P04202); assay: sequestration assay: EO771 cells treated 8 hours with 0.3, 1 and 3 µg/ml, free TGFβ1 in supernatant by ELISA

Measured: binding

B1: mTGFBR2-Fc-CD30L chimeric protein (Fc fusion, mouse, not shown: a dimerising Fc or GST)
chain (part 1 of 2): IPPHVPKSVNSDVMASDNGGAVKLPQLCKFCDVRLSTCDNQKSCMSNCSITAICEKPHEVCVAVWRKNDKNITLETVCHDPKLTYHGFTLEDAASPKCVMKEKKRAGETFFMCACNMEECNDYIIFSEEYTTSSPDLLLVIIQ
chain (part 2 of 2): QKKDSTPNTTEKAPLKGGNCSEDLFCTLKSTPSKKSWAYLQVSKHLNNTKLSWNEDGTIHGLIYQDGNLIVQFPGLYFIVCQLQFLVQCSNHSVDLTLQLLINSKIKKQTLVTVCESGVQSKNIYQNLSQFLLHYLQVNSTISVRVDNFQYVDTNTFPLDNVLSVFLYSSSD
binds: all assays above
